Measured values as given in the supplement of paper PMC4604168 (melanoma cell lines).
This is one part of the list. Single values are uncertain, as repeats are few or missing.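 The apoptosis fraction was the count of cleaved-PARP antibody-stained nuclei relative to all DNA-stained nuclei, imaged in 1,536-well plates. Screening doses were set so most cells survived, and baseline and induced cleaved-PARP levels vary greatly across cell lines.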

system: LOXIMVI; experiment: cleaved PARP positive nuclei fraction relative to DMSO control; melanoma cells; higher = more apoptosis; conditions: library dose: low library concentration; 72 h

SMILES	cleaved PARP positive nuclei fraction [%]
Cn1cncc1[C@@](N)(c1ccc(Cl)cc1)c1ccc2c(c1)c(-c1cccc(Cl)c1)cc(=O)n2C [tipifarnib] + CCN(CC)CCCCNc1ncc2cc(-c3cc(OC)cc(OC)c3)c(NC(=O)NC(C)(C)C)nc2n1 [PD173074] (first compound 0.01 µM, partner dose 0.1 µM)	42.5
O=C(CCCCCCC(=O)Nc1ccccc1)NO [vorinostat] + CCCCCCCCCCCC1=C(O)C(=O)C=C(O)C1=O [Embelin] (first compound 0.08 µM, partner dose 1.2 µM)	59.1
Cn1nnc2c(C(N)=O)ncn2c1=O [temozolomide] + Cn1cc(/C=C2\C(=O)Nc3cccnc32)c2ccccc21 [GW441756] (first compound 2 µM, partner dose 0.4 µM)	43.2
Nc1cccc2c1CN(C1CCC(=O)NC1=O)C2=O (stereo not given) [lenalidomide] + COc1cc2ncnc(Nc3ccc(Oc4ccccc4)cc3)c2cc1OC [SrcI1] (first compound 1 µM, partner dose 2 µM)	32.8
COc1cc(Nc2ncc(F)c(Nc3ccc4c(n3)NC(=O)C(C)(C)O4)n2)cc(OC)c1OC [Tamatinib] + CCc1ccc(CCOc2ccc(CC3SC(=O)NC3=O)cc2)nc1 [pioglitazone] (first compound 0.4 µM, partner dose 2 µM)	159
Cc1nc(Nc2ncc(C(=O)Nc3c(C)cccc3Cl)s2)cc(N2CCN(CCO)CC2)n1 [dasatanib] + COc1cc(N2CCC(N3CCN(C)CC3)CC2)ccc1Nc1ncc(Cl)c(Nc2ccccc2S(=O)(=O)C(C)C)n1 [NVP-TAE684] (first compound 0.004 µM, partner dose 0.08 µM)	35.7
Cn1c(Nc2ccc(C(F)(F)F)cc2)nc2cc(Oc3ccnc(-c4ncc(C(F)(F)F)[nH]4)c3)ccc21 + Cc1cc([N+](=O)[O-])ccc1NS(=O)(=O)c1cc(Cl)ccc1Cl [FH535] (first compound 0.08 µM, partner dose 1 µM)	1790
O=C(CCCCCCC(=O)Nc1ccccc1)NO [vorinostat] + O=S(=O)(c1ccccc1)N(CC(F)(F)F)c1ccc(C(O)(C(F)(F)F)C(F)(F)F)cc1 [T0901317] (first compound 0.08 µM, partner dose 1.4 µM)	109
CC(C)(C)c1cnc(CSc2cnc(NC(=O)C3CCNCC3)s2)o1 + CCc1ccc(CCOc2ccc(CC3SC(=O)NC3=O)cc2)nc1 [pioglitazone] (first compound 0.01 µM, partner dose 2 µM)	55.7
COc1cc(Nc2ncc(F)c(Nc3ccc4c(n3)NC(=O)C(C)(C)O4)n2)cc(OC)c1OC [Tamatinib] + Cn1cc(/C=C2\C(=O)Nc3cccnc32)c2ccccc21 [GW441756] (first compound 0.4 µM, partner dose 0.4 µM)	63.4
C#Cc1cccc(Nc2ncnc3cc(OCCOC)c(OCCOC)cc23)c1 [erlotinib] + N#Cc1c(O)c2c(-c3ccc(-c4ccccc4O)cc3)csc2[nH]c1=O [A769662] (first compound 0.8 µM, partner dose 2 µM)	68.1
OCCn1cc(-c2cnc3nnn(Cc4ccc5ncccc5c4)c3n2)cn1 + COc1cc(N2CCC(N3CCN(C)CC3)CC2)ccc1Nc1ncc(Cl)c(Nc2ccccc2S(=O)(=O)C(C)C)n1 [NVP-TAE684] (first compound 1 µM, partner dose 0.08 µM)	44.2
O=C(Nc1cccc(Cl)c1)Nc1ncc(CCNc2ncnc3ccsc23)s1 + COc1ccc(COc2ccc(Cc3cnc(N)nc3N)cc2OC)cc1 [GW2580] (first compound 0.0008 µM, partner dose 1 µM)	36.2
Cc1nc(Nc2ncc(C(=O)Nc3c(C)cccc3Cl)s2)cc(N2CCN(CCO)CC2)n1 [dasatanib] + O=C1NC(=O)/C(=C/c2ccc(-c3ccc(F)cc3O)o2)S1 [AS252424] (first compound 0.004 µM, partner dose 1 µM)	96.2
C[C@]1(c2nc3c(C(N)=O)cccc3[nH]2)CCCN1 [Veliparib] + Cc1cc([N+](=O)[O-])ccc1NS(=O)(=O)c1cc(Cl)ccc1Cl [FH535] (first compound 1.4 µM, partner dose 1 µM)	38.2

Quoted from the listing:
Value for COc1cc(Nc2ncc(F)c(Nc3ccc4c(n3)NC(=O)C(C)(C)O4)n2)cc(OC)c1OC [Tamatinib] + CCc1ccc(CCOc2ccc(CC3SC(=O)NC3=O)cc2)nc1 [pioglitazone] (first compound 0.4 µM, partner dose 2 µM) under cleaved PARP positive nuclei fraction [%]: 159
Value for O=C(CCCCCCC(=O)Nc1ccccc1)NO [vorinostat] + O=S(=O)(c1ccccc1)N(CC(F)(F)F)c1ccc(C(O)(C(F)(F)F)C(F)(F)F)cc1 [T0901317] (first compound 0.08 µM, partner dose 1.4 µM) under cleaved PARP positive nuclei fraction [%]: 109
